Source: article PMC6091019
These are yes or no findings as the source states them, for the method shown. In cells and extracts the contact can be indirect. Some entries that bind do so weakly or less than the wild type.

Protein sequences, listed by entry. Tags and fused reporters are not part of them. Residues count along the entry.
UniProt P07996, residues 19-1170: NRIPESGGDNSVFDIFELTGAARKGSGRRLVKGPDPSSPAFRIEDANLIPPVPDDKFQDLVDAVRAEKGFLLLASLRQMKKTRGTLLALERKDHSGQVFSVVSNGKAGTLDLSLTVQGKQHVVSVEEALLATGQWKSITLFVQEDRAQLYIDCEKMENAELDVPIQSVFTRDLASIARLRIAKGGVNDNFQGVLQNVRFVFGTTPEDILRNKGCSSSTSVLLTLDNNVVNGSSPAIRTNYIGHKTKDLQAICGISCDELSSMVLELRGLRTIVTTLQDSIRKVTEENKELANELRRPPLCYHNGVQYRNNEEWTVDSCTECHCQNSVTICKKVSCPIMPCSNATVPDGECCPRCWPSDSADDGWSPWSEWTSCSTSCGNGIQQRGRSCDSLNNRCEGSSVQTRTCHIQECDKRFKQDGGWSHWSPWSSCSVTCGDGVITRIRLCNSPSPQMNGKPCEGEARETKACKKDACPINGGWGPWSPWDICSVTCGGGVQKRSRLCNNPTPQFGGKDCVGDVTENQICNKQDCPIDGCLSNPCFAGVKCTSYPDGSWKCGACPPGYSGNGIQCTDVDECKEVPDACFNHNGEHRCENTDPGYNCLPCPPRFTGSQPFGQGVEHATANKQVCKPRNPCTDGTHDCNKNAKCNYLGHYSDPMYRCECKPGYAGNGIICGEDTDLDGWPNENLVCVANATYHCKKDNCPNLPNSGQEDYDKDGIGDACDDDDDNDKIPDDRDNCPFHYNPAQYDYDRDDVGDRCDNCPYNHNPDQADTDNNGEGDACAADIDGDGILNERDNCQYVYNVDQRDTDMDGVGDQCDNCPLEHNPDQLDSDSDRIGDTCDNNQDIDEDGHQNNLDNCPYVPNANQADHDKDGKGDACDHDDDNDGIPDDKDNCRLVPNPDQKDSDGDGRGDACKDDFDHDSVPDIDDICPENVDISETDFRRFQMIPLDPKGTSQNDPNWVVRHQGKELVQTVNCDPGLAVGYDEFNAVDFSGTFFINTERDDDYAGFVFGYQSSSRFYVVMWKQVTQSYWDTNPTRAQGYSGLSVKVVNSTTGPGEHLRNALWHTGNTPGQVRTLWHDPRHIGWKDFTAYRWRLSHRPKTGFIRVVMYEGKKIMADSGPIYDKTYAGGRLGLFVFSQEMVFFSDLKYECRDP
UniProt P04937, residues 25-2477: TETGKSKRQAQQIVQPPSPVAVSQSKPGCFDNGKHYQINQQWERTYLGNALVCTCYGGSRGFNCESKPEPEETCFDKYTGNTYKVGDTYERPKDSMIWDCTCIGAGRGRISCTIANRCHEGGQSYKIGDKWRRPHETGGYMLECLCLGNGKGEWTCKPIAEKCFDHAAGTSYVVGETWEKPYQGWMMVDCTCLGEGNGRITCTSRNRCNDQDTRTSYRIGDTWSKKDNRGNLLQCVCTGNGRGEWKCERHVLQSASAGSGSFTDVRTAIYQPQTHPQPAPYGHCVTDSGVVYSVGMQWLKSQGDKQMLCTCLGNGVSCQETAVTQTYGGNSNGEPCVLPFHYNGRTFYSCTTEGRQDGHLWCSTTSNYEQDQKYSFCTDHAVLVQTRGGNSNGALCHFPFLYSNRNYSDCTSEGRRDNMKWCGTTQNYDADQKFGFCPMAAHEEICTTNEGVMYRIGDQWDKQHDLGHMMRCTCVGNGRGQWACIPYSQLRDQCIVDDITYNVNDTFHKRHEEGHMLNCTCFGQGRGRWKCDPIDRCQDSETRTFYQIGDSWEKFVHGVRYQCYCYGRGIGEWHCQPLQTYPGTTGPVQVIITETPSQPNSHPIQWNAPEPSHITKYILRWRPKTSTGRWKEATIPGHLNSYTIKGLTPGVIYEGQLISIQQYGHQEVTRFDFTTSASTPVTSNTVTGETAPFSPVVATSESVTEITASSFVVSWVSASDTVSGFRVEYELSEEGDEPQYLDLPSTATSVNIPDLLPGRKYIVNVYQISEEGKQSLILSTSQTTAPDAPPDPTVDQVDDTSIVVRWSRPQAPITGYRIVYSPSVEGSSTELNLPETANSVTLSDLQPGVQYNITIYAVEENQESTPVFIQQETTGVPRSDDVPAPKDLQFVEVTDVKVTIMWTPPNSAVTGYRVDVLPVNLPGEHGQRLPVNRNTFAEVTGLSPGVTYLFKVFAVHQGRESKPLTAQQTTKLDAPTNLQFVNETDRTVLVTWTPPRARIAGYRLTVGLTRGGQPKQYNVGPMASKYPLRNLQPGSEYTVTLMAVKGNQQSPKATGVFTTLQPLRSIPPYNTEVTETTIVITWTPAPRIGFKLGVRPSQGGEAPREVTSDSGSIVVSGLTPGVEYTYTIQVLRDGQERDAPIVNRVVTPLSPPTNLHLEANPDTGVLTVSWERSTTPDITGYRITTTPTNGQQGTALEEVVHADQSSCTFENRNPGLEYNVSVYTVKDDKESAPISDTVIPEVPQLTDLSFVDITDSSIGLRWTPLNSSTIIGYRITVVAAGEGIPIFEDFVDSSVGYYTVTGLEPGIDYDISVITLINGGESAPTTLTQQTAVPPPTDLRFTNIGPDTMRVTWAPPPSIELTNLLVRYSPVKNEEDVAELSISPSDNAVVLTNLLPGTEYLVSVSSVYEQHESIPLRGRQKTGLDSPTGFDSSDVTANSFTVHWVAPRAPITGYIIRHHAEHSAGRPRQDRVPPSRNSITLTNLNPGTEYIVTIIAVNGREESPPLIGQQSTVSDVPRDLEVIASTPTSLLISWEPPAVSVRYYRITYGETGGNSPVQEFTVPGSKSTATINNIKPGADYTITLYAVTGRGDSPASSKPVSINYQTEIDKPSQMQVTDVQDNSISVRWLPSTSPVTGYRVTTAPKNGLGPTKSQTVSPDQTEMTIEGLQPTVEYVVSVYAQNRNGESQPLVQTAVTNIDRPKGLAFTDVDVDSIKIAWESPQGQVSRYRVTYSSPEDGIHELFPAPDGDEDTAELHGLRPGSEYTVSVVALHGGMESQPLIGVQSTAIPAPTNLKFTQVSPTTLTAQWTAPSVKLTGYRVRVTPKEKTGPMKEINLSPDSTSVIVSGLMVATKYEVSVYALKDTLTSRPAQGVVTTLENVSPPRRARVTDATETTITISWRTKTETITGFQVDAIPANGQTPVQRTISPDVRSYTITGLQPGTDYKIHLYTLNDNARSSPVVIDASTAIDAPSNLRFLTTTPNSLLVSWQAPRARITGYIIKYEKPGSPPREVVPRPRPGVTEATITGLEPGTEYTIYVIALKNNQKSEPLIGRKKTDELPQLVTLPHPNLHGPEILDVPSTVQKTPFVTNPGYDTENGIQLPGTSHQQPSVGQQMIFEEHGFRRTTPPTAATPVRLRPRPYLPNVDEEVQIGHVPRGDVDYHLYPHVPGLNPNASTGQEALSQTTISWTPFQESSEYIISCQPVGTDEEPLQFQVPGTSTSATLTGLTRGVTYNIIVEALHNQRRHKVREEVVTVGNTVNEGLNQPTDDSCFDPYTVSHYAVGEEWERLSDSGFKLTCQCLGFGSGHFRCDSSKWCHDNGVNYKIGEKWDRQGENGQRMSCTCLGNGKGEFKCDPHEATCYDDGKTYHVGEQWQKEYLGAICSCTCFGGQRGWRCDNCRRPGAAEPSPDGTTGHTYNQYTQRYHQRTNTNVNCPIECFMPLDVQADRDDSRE
UniProt P34058: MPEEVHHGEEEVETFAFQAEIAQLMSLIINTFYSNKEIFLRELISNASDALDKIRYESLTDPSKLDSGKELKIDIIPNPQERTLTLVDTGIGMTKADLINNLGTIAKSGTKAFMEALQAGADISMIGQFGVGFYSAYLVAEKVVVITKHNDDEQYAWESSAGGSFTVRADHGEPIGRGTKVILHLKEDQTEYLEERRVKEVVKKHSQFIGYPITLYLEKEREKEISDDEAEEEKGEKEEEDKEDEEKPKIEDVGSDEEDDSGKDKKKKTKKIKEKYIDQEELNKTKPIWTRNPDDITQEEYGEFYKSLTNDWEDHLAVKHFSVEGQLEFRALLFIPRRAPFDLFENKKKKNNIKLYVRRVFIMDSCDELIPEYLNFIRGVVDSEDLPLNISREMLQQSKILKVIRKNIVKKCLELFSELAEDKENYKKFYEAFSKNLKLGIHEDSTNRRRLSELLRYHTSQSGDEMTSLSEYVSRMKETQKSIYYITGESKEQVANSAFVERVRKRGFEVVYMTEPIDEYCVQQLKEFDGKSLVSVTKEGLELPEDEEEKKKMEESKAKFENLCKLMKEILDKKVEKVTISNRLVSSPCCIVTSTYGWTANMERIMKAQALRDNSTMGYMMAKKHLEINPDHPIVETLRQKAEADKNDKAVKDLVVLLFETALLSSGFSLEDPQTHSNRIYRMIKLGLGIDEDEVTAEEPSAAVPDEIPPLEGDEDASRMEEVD
UniProt Q9R1E9, residues 25-347: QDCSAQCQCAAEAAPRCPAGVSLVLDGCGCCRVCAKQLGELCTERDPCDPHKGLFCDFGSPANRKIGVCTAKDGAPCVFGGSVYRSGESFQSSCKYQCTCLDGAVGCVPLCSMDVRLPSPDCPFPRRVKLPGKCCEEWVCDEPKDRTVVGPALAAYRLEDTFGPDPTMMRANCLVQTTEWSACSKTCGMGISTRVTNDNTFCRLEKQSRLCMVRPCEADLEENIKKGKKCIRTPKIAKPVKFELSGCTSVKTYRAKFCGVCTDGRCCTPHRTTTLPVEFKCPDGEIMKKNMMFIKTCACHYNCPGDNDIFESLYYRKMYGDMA
UniProt Q9QZK5, residues 23-480: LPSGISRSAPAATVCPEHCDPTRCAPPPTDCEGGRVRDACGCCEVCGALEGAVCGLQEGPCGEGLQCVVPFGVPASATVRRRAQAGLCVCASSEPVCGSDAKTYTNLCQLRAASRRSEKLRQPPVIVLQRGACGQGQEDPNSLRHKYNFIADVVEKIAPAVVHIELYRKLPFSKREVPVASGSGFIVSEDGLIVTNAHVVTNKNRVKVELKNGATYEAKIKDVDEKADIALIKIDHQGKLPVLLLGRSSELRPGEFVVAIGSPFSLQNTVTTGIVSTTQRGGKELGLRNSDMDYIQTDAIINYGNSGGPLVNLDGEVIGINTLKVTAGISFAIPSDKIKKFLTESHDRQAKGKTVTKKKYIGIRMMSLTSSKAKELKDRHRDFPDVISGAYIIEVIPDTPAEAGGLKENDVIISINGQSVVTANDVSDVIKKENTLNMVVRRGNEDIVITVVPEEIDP

B1: Serpin H1 (protein, UniProt P29457 18-417)
chain: AEVKKPVEAAAPGTAEKLSSKATTLAERSTGLAFSLYQAMAKDQAVENILLSPLVVASSLGLVSLGGKATTASQAKAVLSAEKLRDEEVHTGLGELVRSLSNSTARNVTWKLGSRLYGPSSVSFADDFVRSSKQHYNCEHSKINFRDKRSALQSINEWASQTTDGKLPEVTKDVERTDGALLVNAMFFKPHWDEKFHHKMVDNRGFMVTRSYTVGVTMMHRTGLYNYYDDEKEKLQLVEMPLAHKLSSLIILMPHHVEPLERLEKLLTKEQLKTWMGKMQKKAVAISLPKGVVEVTHDLQKHLAGLGLTEAIDKNKADLSRMSGKKDLYLASVFHATAFEWDTEGNPFDQDIYGREELRSPKLFYADHPFIFLVRDNQSGSLLFIGRLVRPKGDKMRDEL
B2: Trifunctional enzyme subunit beta, mitochondrial (protein, UniProt Q60587 35-475)
chain: SAPAVQTKSKKTLAKPNLKNIVVVEGVRIPFLLSGTSYKDLMPHDLARAALSGLLYRTNIPKDVVDYIIFGTVIQEVKTSNVAREAALGAGFSDKTPAHTVTMACISSNQAMTTAVGLIASGQCDVVVAGGVELMSDVPIRHSRNMRKMMLDLNKAKTLAQRLSLLTKFRLNFLSPELPAVAEFSTNETMGHSADRLAAAFAVSRMEQDKYALRSHSLAKKAQDEGHLSDIVPFKVPGKDTVSKDNGIRPSSLEQMAKLKPAFIKPYGTVTAANSSFLTDGASAMLIMSEDRALAMGYKPKAYLRDFIYVSQDPKDQLLLGPTYATPKVLEKAGLTMNDIDAFEFHEAFSGQILANFKAMDSDWFAQNYMGRKTKVGAPPLEKFNIWGGSLSLGHPFGATGCRLVMAAANRLRKDGGQYALVAACAAGGQGHAMIVEAYPK
B3: Protein CYR61 (protein, UniProt Q9ES72 25-379)
chain: TCPAACHCPLEAPKCAPGVGLVRDGCGCCKVCAKQLNEDCSKTQPCDHTKGLECNFGASSTALKGICRAQSEGRPCEYNSRIYQNGESFQPNCKHQCTCIDGAVGCIPLCPQELSLPNLGCPNPRLVKVSGQCCEEWVCDEDSIKDSLDDQDDLLGFDASEVELTRNNELIAIGKGSSLKRLPVFGTEPRVLYNPLHAHGQKCIVQTTSWSQCSKSCGTGISTRVTNDNSECRLVKETRICEVRPCGQPVYSSLKKGKKCSKTKKSPEPVRFTYAGCSSVKKYRPKYCGSCVDGRCCTPLQTRTVKMRFRCEDGEMFSKNVMMIQSCKCNYNCPHPNEASFRLYSLFNDIHKFRD

Molecular target: MS lesion-derived fibronectin aggregates (DOC-insoluble fraction of human brain tissue) (human (endogenous in brain tissue)) (UniProt P02751)
Experiment: co-sedimentation; deoxycholate (DOC) (in)solubility assay of homogenates of human control white matter, chronic (active) and chronic inactive MS lesions; DOC-insoluble and DOC-soluble fractions on Western blot under non-reducing conditions

binding | Molecule
binds | thrombospondin-1 (human brain tissue) (from UniProt P07996 19-1170)

Molecular target: deoxycholate (DOC)-insoluble fibronectin aggregates from primary rat astrocytes (rat (endogenous in primary astrocytes)) (UniProt P04937)
Experiment: co-sedimentation; DOC-insoluble fibronectin aggregates from deposits of activated rat astrocytes; SDS-PAGE under reducing conditions, in-gel trypsin digestion, LC-MS (LTQ Orbitrap XL), PEAKS; only proteins known or predicted to be secreted were kept

binding | Molecule
binds | Heat shock protein HSP 90-beta (from UniProt P34058 1-724)
binds | Connective tissue growth factor (from UniProt Q9R1E9 25-347)
binds | Serine protease HTRA1 (from UniProt Q9QZK5 23-480)
binds | B1
binds | B2
binds | B3
